Data taken from the supplement of paper PMC10849652.
The list shows a part of the results.

Protein sequences, listed by entry. Tags and fused reporters are not part of them. Lines headed by an entry give the natural chain unless they say otherwise; changes in a name come on top.
UniProt P62633: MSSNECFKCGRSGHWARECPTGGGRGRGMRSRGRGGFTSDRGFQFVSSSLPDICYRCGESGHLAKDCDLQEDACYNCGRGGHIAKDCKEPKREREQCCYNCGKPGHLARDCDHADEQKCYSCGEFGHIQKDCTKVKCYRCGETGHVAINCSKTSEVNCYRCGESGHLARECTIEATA
UniProt P30085: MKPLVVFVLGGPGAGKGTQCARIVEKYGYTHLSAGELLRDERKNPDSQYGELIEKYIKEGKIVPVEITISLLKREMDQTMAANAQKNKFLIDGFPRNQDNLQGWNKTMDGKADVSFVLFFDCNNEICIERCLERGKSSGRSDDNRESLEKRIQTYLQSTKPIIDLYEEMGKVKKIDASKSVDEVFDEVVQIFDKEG
UniProt Q96KA5: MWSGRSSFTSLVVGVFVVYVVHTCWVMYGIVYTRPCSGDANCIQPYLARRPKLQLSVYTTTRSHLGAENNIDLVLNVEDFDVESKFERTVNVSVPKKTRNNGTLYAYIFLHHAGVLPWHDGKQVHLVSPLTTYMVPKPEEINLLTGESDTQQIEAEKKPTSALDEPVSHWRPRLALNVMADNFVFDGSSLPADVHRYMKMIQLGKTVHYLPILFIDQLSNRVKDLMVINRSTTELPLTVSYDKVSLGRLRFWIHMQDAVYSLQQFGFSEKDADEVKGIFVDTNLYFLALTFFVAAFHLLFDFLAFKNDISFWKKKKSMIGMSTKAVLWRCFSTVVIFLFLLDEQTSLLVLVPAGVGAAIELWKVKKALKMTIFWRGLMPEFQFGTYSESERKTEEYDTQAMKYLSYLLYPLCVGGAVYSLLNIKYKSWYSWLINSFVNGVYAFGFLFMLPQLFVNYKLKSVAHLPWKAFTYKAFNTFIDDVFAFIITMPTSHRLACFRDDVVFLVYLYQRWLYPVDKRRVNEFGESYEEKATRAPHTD
UniProt Q9NX76: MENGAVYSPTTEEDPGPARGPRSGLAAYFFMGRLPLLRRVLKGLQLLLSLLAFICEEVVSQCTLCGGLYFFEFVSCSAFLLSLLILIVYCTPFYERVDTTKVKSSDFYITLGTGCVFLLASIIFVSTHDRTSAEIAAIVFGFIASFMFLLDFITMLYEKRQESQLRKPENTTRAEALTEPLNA
UniProt Q9NZ45: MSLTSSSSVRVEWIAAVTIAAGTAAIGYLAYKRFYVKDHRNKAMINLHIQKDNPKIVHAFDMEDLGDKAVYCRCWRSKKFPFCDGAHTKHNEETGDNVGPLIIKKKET
UniProt Q9H078: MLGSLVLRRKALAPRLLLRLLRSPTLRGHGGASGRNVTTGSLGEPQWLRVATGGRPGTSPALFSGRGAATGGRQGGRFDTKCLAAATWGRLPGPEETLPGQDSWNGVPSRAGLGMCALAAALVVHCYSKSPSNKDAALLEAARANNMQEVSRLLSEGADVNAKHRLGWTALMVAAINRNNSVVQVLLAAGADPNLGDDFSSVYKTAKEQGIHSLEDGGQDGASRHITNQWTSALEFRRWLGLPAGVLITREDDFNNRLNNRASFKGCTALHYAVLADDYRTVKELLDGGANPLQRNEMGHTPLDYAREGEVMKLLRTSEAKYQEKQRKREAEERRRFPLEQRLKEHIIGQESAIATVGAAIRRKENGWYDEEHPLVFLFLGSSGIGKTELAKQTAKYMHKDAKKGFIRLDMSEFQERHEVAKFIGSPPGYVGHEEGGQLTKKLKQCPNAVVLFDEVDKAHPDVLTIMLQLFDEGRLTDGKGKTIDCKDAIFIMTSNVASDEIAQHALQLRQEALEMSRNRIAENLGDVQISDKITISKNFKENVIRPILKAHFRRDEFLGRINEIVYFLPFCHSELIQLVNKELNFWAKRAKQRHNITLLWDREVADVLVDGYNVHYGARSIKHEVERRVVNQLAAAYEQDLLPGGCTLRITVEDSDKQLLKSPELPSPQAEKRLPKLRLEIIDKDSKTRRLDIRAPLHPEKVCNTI
UniProt Q92600, whole entry, looked up: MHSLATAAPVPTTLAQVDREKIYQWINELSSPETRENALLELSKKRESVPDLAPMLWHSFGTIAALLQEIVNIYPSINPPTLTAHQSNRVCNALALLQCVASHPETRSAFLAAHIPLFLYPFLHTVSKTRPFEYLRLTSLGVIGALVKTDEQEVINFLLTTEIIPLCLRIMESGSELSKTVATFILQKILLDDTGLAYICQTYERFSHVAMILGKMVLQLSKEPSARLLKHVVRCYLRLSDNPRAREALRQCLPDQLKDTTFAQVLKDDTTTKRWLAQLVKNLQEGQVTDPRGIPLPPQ
UniProt P0C7P0: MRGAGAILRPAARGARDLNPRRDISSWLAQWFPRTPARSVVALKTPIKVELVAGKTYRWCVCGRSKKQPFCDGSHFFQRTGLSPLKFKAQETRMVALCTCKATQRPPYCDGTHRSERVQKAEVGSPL
UniProt P09496: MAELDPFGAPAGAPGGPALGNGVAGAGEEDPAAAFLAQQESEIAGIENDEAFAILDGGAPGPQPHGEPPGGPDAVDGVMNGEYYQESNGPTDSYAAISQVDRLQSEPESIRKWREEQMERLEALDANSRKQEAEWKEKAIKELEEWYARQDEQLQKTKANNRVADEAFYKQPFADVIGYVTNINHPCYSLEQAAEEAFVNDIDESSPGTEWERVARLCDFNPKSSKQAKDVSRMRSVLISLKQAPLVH
UniProt Q9Y2R0: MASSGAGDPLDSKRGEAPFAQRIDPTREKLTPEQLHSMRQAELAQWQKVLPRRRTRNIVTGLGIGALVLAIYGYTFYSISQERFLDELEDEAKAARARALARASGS
UniProt P09543: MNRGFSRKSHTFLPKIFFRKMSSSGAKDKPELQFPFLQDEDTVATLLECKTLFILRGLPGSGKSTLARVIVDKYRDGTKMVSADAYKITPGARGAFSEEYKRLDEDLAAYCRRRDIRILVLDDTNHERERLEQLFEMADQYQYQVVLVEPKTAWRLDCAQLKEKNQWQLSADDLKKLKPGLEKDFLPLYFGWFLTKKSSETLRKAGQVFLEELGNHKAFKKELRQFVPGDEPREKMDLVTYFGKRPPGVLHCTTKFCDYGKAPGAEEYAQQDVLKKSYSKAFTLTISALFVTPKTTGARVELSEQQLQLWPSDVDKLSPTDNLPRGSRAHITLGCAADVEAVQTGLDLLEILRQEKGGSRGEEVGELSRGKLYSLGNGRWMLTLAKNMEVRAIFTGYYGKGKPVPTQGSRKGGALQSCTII
UniProt P39059: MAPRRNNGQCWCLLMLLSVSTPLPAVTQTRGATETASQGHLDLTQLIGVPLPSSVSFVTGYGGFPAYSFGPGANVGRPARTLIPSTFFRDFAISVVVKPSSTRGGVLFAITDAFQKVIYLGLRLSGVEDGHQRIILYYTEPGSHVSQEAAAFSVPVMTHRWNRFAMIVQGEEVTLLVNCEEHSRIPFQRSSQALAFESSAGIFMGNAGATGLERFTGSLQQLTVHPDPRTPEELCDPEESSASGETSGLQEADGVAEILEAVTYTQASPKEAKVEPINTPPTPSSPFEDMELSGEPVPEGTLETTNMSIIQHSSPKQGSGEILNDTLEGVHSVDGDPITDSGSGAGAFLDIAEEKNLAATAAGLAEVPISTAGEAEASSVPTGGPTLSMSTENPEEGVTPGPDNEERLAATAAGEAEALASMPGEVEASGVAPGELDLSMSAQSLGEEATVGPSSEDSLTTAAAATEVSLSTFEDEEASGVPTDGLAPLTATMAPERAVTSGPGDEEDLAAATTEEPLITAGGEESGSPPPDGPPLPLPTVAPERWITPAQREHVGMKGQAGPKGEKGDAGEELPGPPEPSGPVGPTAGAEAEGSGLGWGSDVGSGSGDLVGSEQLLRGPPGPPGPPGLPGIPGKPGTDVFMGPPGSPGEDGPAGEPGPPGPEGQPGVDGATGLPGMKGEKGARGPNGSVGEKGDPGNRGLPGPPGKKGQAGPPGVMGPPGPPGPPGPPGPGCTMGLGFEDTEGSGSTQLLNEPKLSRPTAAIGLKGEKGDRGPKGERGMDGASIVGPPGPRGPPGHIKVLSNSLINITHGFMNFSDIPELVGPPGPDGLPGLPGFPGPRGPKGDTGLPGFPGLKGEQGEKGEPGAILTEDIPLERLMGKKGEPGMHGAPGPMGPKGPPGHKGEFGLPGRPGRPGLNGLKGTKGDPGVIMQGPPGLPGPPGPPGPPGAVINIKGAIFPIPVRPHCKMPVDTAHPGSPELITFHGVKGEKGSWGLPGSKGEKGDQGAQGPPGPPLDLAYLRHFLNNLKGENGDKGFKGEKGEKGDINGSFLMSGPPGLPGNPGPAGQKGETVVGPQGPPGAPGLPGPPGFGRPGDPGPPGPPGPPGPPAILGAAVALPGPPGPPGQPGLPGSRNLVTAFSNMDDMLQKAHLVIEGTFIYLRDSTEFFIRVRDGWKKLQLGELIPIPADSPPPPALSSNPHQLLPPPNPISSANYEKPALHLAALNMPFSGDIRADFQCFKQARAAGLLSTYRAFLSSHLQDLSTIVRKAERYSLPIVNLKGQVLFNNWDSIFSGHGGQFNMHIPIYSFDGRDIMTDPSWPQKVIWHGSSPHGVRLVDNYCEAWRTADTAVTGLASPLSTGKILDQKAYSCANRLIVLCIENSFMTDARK
UniProt Q2KHT3: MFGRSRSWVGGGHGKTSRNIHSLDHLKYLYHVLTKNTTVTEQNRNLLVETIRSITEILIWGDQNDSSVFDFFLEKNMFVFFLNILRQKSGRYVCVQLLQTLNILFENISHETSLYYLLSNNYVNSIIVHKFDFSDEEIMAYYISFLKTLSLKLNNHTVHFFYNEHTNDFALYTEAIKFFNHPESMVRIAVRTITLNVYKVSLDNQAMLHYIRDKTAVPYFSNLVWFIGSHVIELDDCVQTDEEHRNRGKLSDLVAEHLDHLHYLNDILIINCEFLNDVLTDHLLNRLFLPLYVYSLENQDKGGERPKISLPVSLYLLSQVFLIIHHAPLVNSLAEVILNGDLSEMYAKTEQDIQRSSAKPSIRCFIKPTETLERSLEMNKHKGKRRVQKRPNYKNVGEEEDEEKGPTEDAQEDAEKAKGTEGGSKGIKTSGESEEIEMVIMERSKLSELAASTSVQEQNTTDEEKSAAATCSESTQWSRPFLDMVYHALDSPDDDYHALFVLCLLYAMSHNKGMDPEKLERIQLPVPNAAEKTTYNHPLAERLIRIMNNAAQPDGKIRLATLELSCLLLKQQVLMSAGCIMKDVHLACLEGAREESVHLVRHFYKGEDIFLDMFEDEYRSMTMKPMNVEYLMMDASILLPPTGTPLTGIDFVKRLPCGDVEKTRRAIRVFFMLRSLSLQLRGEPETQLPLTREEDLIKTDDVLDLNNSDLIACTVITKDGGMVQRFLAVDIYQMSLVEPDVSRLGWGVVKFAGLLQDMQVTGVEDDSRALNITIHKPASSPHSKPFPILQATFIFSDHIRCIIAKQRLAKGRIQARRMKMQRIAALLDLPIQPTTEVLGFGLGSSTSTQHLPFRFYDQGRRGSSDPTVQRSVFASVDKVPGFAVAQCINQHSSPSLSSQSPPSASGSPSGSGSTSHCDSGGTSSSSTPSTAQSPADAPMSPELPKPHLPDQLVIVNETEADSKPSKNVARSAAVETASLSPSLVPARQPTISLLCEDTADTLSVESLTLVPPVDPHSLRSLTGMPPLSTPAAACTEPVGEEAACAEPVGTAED
UniProt Q96BR5: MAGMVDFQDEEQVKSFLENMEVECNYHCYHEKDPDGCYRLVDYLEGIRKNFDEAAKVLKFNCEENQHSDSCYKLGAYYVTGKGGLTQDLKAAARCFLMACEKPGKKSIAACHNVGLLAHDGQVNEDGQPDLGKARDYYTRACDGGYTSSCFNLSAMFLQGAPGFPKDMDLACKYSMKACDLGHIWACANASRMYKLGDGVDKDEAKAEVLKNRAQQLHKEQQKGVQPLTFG
UniProt Q9H9A5, whole entry, looked up: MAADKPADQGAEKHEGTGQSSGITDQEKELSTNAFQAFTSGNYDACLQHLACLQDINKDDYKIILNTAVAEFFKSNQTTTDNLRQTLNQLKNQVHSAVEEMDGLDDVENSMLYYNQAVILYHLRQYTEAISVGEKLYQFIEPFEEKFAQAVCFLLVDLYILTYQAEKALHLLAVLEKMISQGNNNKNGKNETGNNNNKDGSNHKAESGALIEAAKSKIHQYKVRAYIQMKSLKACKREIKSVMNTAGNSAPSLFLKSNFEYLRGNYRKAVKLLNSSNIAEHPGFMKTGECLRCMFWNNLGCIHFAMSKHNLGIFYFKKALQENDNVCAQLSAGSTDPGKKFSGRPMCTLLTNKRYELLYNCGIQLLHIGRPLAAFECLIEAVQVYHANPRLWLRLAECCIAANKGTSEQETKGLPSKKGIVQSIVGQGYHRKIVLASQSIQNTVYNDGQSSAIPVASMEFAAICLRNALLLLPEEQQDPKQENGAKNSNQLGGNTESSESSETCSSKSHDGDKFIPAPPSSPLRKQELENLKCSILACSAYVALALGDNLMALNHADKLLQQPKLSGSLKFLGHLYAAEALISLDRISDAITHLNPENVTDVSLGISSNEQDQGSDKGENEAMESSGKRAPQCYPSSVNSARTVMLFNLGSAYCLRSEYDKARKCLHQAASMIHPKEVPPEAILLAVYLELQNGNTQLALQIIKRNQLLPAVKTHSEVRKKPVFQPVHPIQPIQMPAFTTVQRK

Each target was assayed with CC[C@H](C)[C@@H](C(=O)N[C@@H]([C@@H](C)O)C(=O)N[C@@H](CC(C)C)C(=O)[C@]1(CO1)C)NC(=O)[C@H]([C@@H](C)CC)N(C)C(=O)C [epoxomicin] (assay: log2 fold change, soluble protein after heating vs DMSO (PISA); higher = thermal stabilisation; K562 cells, 10 uM, 30 min; active = over 0.2 and 3.5 SD of the protein, either way, in both replicates (recomputed)).
Procedure, shortened: (§1)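 Soluble protein was quantified by TMTpro 16plex LC-MS/MS after channel sums were equalised. It was obtained as the supernatant after 21,000xg for 90 min from pooled aliquots of K562 cells (2×10^6 cells/mL, 10 μM compound, 30 min) heated for 3 min across 48°C-58°C and extracted in PBS with 0.5% NP-40 at 4°C. Thermal stability values are relative to control samples and come from duplicates. They are given as log2 fold changes.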

log2 fold change, inactive:
CNBP isoform 6 (UniProt P62633) -0.04
CMPK1 (UniProt P30085) 0.092
CLPP (UniProt Q16740) -0.056
CLPTM1L (UniProt Q96KA5) 0.013
CMC2 (UniProt Q9NRP2) -0.031
CISD2 (UniProt Q8N5K1) -0.035
CMTM6 (UniProt Q9NX76) 0.044
CISD1 (UniProt Q9NZ45) 0.006
CLPB isoform 2 (UniProt Q9H078) 0.019
CNOT9 isoform 2 (UniProt Q92600) -0.007

Already shown: an excerpt of the list.
log2 fold change, inactive:
CMPK1 (UniProt P30085) 0.092
CLPP (UniProt Q16740) -0.056

The targets below were run with CCn1c(C(=O)N(C2CC2)C2CC2)cc2c3c(ncn3C)c(Nc3cc(C)n(C)n3)nc21 in the same assay as above.
Procedure, shortened: as §1

log2 fold change, inactive:
CISD3 (UniProt P0C7P0) 0.094
CLTA isoform 2 (UniProt P09496) 0.093
CMSS1 (UniProt Q9BQ75) -0.099
CNOT8 (UniProt Q9UFF9) 0.044
COA3 (UniProt Q9Y2R0) 0.029
CNP (UniProt P09543) -0.023
CNOT6L (UniProt Q96LI5) -0.093
COL15A1 (UniProt P39059) -0.074
CLEC16A (UniProt Q2KHT3) -0.029
COA7 (UniProt Q96BR5) 0.037
CLASP1 (UniProt Q7Z460) -0.055
CKAP5 (UniProt Q14008) -0.061
CNOT10 isoform 6 (UniProt Q9H9A5) -0.071
